Reference: PubChem BioAssay AID1347075 (National Center for Advancing Translational Sciences (NCATS), 2019)
Values joined by “and” are separate entries in the source; they are usually repeats but may differ in a detail not shown here. Equal entries are not always repeated. Out of some 400,000 compounds screened, about 5,500 (1.4%) were called active. Inconclusive means that the source gave no clear call. Such entries were picked first, then a sample of the others. Calls come from the whole dose curve; as a rule, active = well fitted cell-killing curve with a large enough effect; inconclusive = small, poorly fitted or top-dose-only effect, or effect the other way; inactive = flat fitted curve, though single readings scatter. A potency beside an inconclusive call is a rough fit, not a confirmed value.

Assay: qHTS assay for MDR1-selective chemotherapeutics: Primary screen using the parental adenocarcinoma cell KB-3-1; note: nearly all actives have a fitted effect of over 60% in size
Conditions: KB-3-1 viability, CellTiter-Glo ATP luminescence, 72 h; activity change, negative = cytotoxic: at 46.1 µM (top of the series)
Method in brief: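 Here the drug-naive KB-3-1 line serves as comparator for MDR sub-line selectivity; cells received compound titrations, 72 h at 37 °C, then CellTiter-Glo readout.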
% is set by controls: 0 for no effect and ±100 for the full control effect; potency is the fitted concentration of half-maximal effect.

Structure (SMILES) | Potency | activity change, negative = cytotoxic
CCc1nn(C(C)C(=O)N2CCN(c3cccc(C(F)(F)F)c3)CC2)c(=O)c2cc3occc3n12 (stereo not drawn) | active: 13 µM | 
Cc1ccccc1N1CCN(CCCOc2ccc3c(C)cc(=O)oc3c2)CC1 | inconclusive: 35.5 µM [cytotoxic, single point] | 
CN1CCC(Oc2ccc(Sc3ccccc3)cc2)CC1 | inconclusive: 29.1 µM [cytotoxic, single point] | 
Cc1ccc(N2C(=O)CC(Sc3nc4ccccc4o3)C2=O)cc1Cl (stereo not drawn) | inconclusive: 29.1 µM [cytotoxic, single point] | 
O=C1CCCC(O)=C1C=NCc1ccccc1 | inconclusive: 0.0082 µM [rising, full curve, poor fit] | 
CCCCN(C(=O)Cn1ncc(Cl)c(Cl)c1=O)c1c(N)n(CC(C)C)c(=O)[nH]c1=O | inactive | 
C[n+]1cccc(C(=O)N/N=C/c2ccc3c(c2)OCO3)c1 | inconclusive: 6.51 µM [rising, full curve, poor fit] | 
CCc1ccccc1NC(=O)CSCc1cnn(-c2ccccc2)c1-n1cccc1 | inactive | 
Cc1nc2ccccc2nc1CC(O)(c1ccccc1)c1ccccc1 | inconclusive: 16.4 µM [cytotoxic, single point] | 
Cc1nn2c(N)c(-c3ccccc3)cnc2c1-c1ccc(Cl)cc1 | inconclusive: 25.9 µM [cytotoxic, partial curve, poor fit] | 
Cc1ccc(C2=C(O)C(=O)C(c3ccc(C)cc3)=C(O)C2=O)cc1 | inconclusive: 29.1 µM [cytotoxic, single point] | 
O=C(COc1ncnc2cc(Cl)ccc12)c1ccc2c(c1)OCCO2 | inactive | 
O=C(COC(=O)c1ccc(Cl)c(S(=O)(=O)N2CCCC2)c1)NCc1ccccc1 | inactive | 
COc1cc(OC)c(NC(=O)CC(c2cccs2)N2Cc3ccccc3C2=O)cc1Cl (stereo not drawn) | inactive | 
Cc1ccccc1Nc1sc(C(=O)c2ccccc2)c(N)c1C(=O)NCc1ccc(Cl)cc1 | inconclusive: 7.31 µM [cytotoxic, single point] | 
CCOc1ccc(C(=O)OCC(=O)NC2CCCCCCC2)cc1 | inactive | 
C[C@@H](NC(c1ccc(F)cc1)c1ccc2cccnc2c1O)c1ccccc1 (stereo partly drawn) | inconclusive: 8.2 µM [cytotoxic, partial curve] | 
C=CCNc1ncnc2c1ncn2[C@H]1CN(CCc2ccccc2)C[C@@H](CO)O1 | inactive | 
COc1ccc([N+](=O)[O-])cc1N(CC(=O)O)S(C)(=O)=O | inconclusive: 13 µM [rising, partial curve, poor fit] | 
O=Cc1ccc(O)c2ncccc12 | active: 6.51 µM | 
FC(F)(F)c1ccc(N/N=C/c2cccnc2)nc1 |  | inconclusive: -33% [cytotoxic]
CC(C)C(=O)N1CCCC1(C)C(=O)NCc1ccc(Cl)cc1 (stereo not drawn) | inactive | 
O=C(Nc1ccc(F)cc1)c1cccnc1NCCc1ccccc1 | inconclusive: 29.1 µM [cytotoxic, single point] | 

Structure (SMILES) | Potency | activity change, negative = cytotoxic
CC(/C=N/n1cnnc1)=C\c1ccccc1 | active: 5.17 µM | 
Cc1ccc2oc(-c3cccc(NC(=S)NC(=O)/C=C/c4ccco4)c3)nc2c1 | inconclusive: 20.6 µM [cytotoxic, single point] | 
Cc1ccc(C)c(N(CC(=O)NC2CCCC2)C(=O)CNC(=O)c2cccs2)c1 | inconclusive: 25.9 µM [rising, partial curve, poor fit] | 
C[C@H](CO)N1C[C@H](C)[C@H](CN(C)Cc2ccncc2)Oc2ccc(NC(=O)Nc3ccc(C(F)(F)F)cc3)cc2CC1=O | active: 6.51 µM | 
O=C1OC[C@H](Cc2ccc3c(c2)OCO3)/C1=C\c1ccc2c(c1)OCO2 | inconclusive: 16.4 µM [cytotoxic, single point] | 
CCc1cc(C(=O)N2CCc3c([nH]c4ccccc34)C2c2ccc(OC)cc2F)no1 (stereo not drawn) | active: 5.8 µM | 
CCOC1=C2CN(S(=O)(=O)c3ccc(C)cc3)[C@H](c3cccc4ccccc34)C[C@H]2[C@H]2C(=O)N(c3ccccc3)C(=O)[C@H]2C1 | inactive | 
CC1(Cc2ccc(C(F)(F)F)o2)C(=O)Nc2ccc(-c3cccc(C(F)(F)F)c3)cc21 (stereo not drawn) | inconclusive: 18.4 µM [cytotoxic, single point] | 
C(=NOCCc1ccccc1)c1ccccn1 | inactive | 
C=CCn1c(SCC(=O)NC2CC2)nnc1-c1cccc(OC)c1 | inactive | 
O=c1oc2ccccc2c(NC2CCCCC2)c1NS(=O)(=O)c1ccc(Br)cc1 | inactive | 
Cc1cnc(NC(=O)c2nn(C)cc2[N+](=O)[O-])s1 | inconclusive: 16.4 µM [cytotoxic, partial curve, poor fit] | 
Cn1c(Cc2ccccc2)nnc1SCC(=O)Nc1ccc(N2CCOCC2)cc1 | inactive | 
CN1CCc2c(sc(NC(=O)CS(=O)(=O)c3ccccc3)c2C(N)=O)C1 | inactive | 
Cc1cc2c(cc1S(=O)(=O)Nc1cccc(C)c1C)n(C)c(=O)c(=O)n2C | inconclusive: 23.1 µM [cytotoxic, partial curve, poor fit] | 
CCCCn1nnc(NC(=S)NC(=O)c2ccc(-c3cccc(Cl)c3Cl)o2)n1 | inconclusive: 23.1 µM [cytotoxic, single point] | 
N#C/C(=C(/O)c1ccco1)c1nc2ccccc2s1 | inconclusive: 35.5 µM [cytotoxic, single point] | 
CN(C)c1ccc(/C=C/C(=O)c2ccc3c(c2)OCO3)cc1 | inconclusive: 29.1 µM [cytotoxic, single point] | 
O=C(COc1ccccc1)n1nc(-c2ccc(Cl)cc2)nc1NCc1ccco1 | inconclusive: 35.5 µM [cytotoxic, single point] | 
CN1CCN(c2cc(-c3cc(O)c4ncccc4c3)ccn2)CC1 | inconclusive: 29.1 µM [cytotoxic, single point] | 
O=C(CNC(=O)c1ccco1)N/N=C/c1ccc(C(=O)O)cc1 | inconclusive: 29.1 µM [rising, single point] | 
COc1cc(/C=C/C(=O)OC(C)C(=O)c2ccccc2)cc(OC)c1OC (stereo not drawn) | inconclusive: 20.6 µM [rising, single point] | 
O=C1c2cccc3cc([N+](=O)[O-])cc(c23)C(=O)N1c1nncs1 | inactive | 

Looked up above:
In Potency, O=c1oc2ccccc2c(NC2CCCCC2)c1NS(=O)(=O)c1ccc(Br)cc1 shows inactive
In Potency, CCCCn1nnc(NC(=S)NC(=O)c2ccc(-c3cccc(Cl)c3Cl)o2)n1 shows inconclusive: 23.1 µM [cytotoxic, single point]
In Potency, CCc1nn(C(C)C(=O)N2CCN(c3cccc(C(F)(F)F)c3)CC2)c(=O)c2cc3occc3n12 (stereo not drawn) shows active: 13 µM
In Potency, Cc1ccccc1Nc1sc(C(=O)c2ccccc2)c(N)c1C(=O)NCc1ccc(Cl)cc1 shows inconclusive: 7.31 µM [cytotoxic, single point]
In Potency, Cc1ccc(C)c(N(CC(=O)NC2CCCC2)C(=O)CNC(=O)c2cccs2)c1 shows inconclusive: 25.9 µM [rising, partial curve, poor fit]

Continued:

Structure (SMILES) | Potency | activity change, negative = cytotoxic
O=C(Nc1nnc(-c2ccco2)o1)c1ccc2ccccc2c1 | inconclusive: 2.06 µM [cytotoxic, full curve] | 
CN(C)CCCn1c2c3ccccc3ccc2c2oc(=O)c3ccccc3c21 | inconclusive: 23.1 µM [cytotoxic, partial curve, poor fit] and inconclusive: 29.1 µM [cytotoxic, single point] | 
Cc1cc(N(C)Cc2ccccc2)nc2cc(O)ccc12 | inactive | 
O=C(NCc1ccco1)C1CC(c2c(Cl)cccc2Cl)=NO1 (stereo not drawn) | inconclusive: 29.1 µM [cytotoxic, single point] | 
NC(=O)c1ccc(CSc2nc3ccccc3s2)cc1 | inconclusive: 16.4 µM [rising, single point] | 
O=c1[nH]c(/C(Cl)=C/c2cc(Cl)ccc2O)nc2cc(Cl)ccc12 | inconclusive: 18.4 µM [cytotoxic, single point] | 
Cc1ccc(C)c(N2CCN(C(=O)c3ccc4nc(-c5ccco5)c(-c5ccco5)nc4c3)CC2)c1 | active: 18.4 µM | 
CN(C)CCc1cc2c(c3c1ccc1ccccc13)OCO2 | inconclusive: 29.1 µM [cytotoxic, single point] | 
CC(C)C[C@H]1CNC(=S)N1C[C@H]1CCCN1C[C@H](Cc1ccc(O)cc1)N1C[C@H](Cc2ccccc2)N(CC2CCCCC2)C1=S | inconclusive: 25.9 µM [cytotoxic, single point] | 
C=CC[C@@H](CC(=O)N[C@H](CO)Cc1ccccc1)C(=O)N[C@H](COC(=O)[C@@H](CC=C)Cc1ccc(F)cc1)Cc1c[nH]c2ccccc12 | inconclusive: 29.1 µM [cytotoxic, single point] | 
COc1ccc(-c2nc(CC(=O)Nc3cccc(S(=O)(=O)NC4=NCCC4)c3)cs2)cc1 |  | inconclusive: -46.2%
Cc1ccc(NC(=O)CCc2ccc(C)o2)c(C)c1 | inconclusive: 29.1 µM [cytotoxic, single point] | 
CCc1ccccc1NC(=O)Cn1c(=O)n(CC(=O)NCCc2ccccc2)c(=O)c2ccccc21 | inactive | 
COc1cc(/C=C/c2nc3ccccc3nc2/C=C/c2cc(OC)c(OC)c(OC)c2)cc(OC)c1OC | inconclusive: 9.2 µM [rising, partial curve, poor fit] | 
Cc1ccc(Cn2nnnc2CN2CCC(c3nc4ccc(Cl)cc4[nH]3)CC2)cc1 | active: 18.4 µM | 
CS(=O)(=O)n1nc(-c2ccco2)nc1NCc1ccccc1Cl | inactive | 
Cc1c(/C=C(\C#N)C(=O)Nc2cccc(Cl)c2)c2ccccc2n1Cc1ccccc1 | inconclusive: 29.1 µM [cytotoxic, single point] | 
CC(C)(C)c1ccc(CN(Cc2ccccc2)C(c2ccccn2)c2nnnn2C(C)(C)C)cc1 (stereo not drawn) | inconclusive: 14.1 µM [cytotoxic, partial curve] | 
Cc1cc(Br)ccc1OCCCCNC(C)(C)C | inconclusive: 18.4 µM [cytotoxic, partial curve, poor fit] | 
O=C(Nc1ccccc1F)c1coc(=O)c(Br)c1 | inactive | 
O=C(c1ccc(N2CCCCS2(=O)=O)cc1)N1CCN(c2ccccc2F)CC1 | inconclusive: 23.1 µM [cytotoxic, partial curve, poor fit] | 
CNC(=O)COc1ccccc1C(=O)Nc1ccccc1 | inconclusive: 18.4 µM [rising, partial curve, poor fit] | 
